The supplement of paper PMC10849652
Some of the results follow. Residues, ends and D or L forms follow the SMILES beside them. *: point of attachment. Cbz = O=C(OCc1ccccc1)*

By UniProt entry, the sequences of proteins in these tests, tags left out. Where a name states a change or a piece, a line headed by the entry shows the natural chain unless it says otherwise.
UniProt Q92466: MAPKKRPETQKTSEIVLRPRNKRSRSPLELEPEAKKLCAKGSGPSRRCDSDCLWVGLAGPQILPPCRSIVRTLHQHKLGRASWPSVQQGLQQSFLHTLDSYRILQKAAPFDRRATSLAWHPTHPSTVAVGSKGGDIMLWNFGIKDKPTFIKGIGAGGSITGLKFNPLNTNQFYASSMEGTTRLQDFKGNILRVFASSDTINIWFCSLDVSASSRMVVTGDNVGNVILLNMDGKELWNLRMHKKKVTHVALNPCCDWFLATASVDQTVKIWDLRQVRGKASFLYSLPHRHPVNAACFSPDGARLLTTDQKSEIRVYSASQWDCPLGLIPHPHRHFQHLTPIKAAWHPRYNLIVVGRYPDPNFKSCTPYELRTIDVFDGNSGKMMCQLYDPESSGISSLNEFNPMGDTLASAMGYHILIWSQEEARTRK
UniProt Q6IAN0: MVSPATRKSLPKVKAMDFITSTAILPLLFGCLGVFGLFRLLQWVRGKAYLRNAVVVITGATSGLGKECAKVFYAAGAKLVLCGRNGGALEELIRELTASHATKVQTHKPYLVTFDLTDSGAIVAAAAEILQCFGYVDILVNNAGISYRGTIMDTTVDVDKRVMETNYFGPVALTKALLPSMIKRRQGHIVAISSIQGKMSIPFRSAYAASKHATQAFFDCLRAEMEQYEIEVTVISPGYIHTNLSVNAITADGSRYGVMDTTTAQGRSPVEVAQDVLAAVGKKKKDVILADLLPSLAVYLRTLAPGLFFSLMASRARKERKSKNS
UniProt Q96LJ7: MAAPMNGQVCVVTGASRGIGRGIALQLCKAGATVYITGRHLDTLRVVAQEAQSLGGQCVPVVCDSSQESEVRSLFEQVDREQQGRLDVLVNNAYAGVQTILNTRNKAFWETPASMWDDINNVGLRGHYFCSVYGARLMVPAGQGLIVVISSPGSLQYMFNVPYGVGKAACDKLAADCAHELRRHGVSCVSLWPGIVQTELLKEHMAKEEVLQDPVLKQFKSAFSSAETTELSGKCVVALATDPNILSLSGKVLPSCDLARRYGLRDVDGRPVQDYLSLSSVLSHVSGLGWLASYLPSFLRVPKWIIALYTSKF
UniProt Q9UPY3: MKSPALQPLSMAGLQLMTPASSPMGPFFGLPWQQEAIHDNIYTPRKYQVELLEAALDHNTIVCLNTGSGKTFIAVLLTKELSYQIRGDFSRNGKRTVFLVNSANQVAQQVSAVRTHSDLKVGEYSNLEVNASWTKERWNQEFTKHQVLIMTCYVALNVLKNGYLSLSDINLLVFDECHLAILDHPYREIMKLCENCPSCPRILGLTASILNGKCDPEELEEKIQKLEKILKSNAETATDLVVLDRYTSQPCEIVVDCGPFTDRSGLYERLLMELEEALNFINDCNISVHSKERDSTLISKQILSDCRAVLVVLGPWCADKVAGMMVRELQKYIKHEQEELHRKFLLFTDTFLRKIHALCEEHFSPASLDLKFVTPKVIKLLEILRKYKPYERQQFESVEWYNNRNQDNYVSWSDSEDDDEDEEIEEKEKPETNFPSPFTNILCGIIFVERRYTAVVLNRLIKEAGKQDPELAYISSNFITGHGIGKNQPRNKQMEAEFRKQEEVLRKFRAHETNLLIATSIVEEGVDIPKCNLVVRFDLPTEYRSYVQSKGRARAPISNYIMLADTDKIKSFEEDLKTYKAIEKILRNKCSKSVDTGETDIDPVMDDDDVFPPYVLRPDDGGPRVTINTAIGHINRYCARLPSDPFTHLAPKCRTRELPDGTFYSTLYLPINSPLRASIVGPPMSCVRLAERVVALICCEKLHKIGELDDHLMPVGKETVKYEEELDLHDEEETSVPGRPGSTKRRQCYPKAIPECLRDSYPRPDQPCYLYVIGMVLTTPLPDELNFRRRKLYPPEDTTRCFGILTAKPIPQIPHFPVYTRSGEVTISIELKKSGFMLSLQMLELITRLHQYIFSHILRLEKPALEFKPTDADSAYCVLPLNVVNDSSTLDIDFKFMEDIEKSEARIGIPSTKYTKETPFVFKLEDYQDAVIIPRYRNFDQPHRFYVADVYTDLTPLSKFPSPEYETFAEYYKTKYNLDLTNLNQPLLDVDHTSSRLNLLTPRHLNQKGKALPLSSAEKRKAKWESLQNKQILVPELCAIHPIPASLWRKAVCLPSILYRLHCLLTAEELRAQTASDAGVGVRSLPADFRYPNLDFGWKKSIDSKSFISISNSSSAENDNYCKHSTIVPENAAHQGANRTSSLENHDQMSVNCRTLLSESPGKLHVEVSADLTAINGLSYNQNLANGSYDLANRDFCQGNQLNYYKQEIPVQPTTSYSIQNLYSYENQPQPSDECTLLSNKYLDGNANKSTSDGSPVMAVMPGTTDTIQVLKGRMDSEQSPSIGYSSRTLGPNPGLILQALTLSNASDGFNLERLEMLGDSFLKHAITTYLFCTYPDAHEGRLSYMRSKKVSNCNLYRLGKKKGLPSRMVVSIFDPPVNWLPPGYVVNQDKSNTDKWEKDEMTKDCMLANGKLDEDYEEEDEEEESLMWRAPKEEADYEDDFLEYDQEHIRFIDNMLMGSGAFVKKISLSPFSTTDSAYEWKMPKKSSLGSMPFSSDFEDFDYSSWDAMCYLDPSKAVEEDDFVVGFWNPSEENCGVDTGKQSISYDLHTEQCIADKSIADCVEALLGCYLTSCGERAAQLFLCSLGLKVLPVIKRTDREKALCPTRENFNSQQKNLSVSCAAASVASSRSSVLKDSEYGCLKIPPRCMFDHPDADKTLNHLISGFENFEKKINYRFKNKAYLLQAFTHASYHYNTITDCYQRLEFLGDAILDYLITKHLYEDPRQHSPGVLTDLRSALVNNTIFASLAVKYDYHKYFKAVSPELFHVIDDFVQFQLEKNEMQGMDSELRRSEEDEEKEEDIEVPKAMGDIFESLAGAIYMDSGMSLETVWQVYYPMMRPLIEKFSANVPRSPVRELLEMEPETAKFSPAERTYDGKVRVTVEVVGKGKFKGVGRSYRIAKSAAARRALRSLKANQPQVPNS
UniProt Q6ICB0: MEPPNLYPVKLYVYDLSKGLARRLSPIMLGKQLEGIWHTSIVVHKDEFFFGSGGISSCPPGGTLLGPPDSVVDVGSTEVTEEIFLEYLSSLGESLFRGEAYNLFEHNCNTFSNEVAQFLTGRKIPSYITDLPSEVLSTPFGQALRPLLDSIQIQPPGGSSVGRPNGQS
UniProt Q14689: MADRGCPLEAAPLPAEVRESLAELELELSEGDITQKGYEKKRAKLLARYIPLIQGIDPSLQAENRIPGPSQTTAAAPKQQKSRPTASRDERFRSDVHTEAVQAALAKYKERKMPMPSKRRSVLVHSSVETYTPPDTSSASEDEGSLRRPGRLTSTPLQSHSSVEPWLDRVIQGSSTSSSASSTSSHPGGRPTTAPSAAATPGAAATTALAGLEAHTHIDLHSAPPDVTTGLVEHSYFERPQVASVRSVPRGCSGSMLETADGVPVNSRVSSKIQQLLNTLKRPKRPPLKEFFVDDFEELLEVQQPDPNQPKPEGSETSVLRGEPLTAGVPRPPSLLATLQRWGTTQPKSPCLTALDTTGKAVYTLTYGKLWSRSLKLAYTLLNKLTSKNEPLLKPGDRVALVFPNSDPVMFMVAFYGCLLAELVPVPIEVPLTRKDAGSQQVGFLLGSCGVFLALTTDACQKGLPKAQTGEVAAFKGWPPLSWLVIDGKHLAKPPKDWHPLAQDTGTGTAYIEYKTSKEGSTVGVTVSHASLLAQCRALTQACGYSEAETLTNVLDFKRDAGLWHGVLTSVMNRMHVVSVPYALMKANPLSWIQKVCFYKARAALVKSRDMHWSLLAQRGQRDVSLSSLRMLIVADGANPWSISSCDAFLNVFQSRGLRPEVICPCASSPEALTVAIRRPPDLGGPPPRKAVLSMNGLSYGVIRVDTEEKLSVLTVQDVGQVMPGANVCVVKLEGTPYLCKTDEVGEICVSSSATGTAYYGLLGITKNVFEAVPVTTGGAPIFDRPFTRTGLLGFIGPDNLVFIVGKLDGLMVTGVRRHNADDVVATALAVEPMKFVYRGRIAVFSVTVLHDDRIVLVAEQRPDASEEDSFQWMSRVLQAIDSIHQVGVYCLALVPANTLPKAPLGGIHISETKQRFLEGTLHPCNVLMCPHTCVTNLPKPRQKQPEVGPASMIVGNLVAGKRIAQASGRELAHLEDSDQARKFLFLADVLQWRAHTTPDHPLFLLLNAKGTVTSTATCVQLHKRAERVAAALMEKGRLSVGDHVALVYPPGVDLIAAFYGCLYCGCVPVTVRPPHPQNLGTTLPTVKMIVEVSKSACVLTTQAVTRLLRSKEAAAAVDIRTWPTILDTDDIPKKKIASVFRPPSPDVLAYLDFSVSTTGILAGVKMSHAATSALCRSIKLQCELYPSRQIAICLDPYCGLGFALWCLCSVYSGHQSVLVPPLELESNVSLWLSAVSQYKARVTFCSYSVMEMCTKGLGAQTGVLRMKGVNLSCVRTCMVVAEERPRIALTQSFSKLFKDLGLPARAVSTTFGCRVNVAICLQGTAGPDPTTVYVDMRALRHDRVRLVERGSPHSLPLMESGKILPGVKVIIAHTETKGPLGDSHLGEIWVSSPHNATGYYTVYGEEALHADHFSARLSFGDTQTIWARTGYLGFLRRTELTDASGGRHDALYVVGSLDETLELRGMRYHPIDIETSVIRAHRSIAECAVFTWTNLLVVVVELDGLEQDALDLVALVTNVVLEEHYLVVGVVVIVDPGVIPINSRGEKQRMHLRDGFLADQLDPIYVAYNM
UniProt P09622, whole entry, looked up: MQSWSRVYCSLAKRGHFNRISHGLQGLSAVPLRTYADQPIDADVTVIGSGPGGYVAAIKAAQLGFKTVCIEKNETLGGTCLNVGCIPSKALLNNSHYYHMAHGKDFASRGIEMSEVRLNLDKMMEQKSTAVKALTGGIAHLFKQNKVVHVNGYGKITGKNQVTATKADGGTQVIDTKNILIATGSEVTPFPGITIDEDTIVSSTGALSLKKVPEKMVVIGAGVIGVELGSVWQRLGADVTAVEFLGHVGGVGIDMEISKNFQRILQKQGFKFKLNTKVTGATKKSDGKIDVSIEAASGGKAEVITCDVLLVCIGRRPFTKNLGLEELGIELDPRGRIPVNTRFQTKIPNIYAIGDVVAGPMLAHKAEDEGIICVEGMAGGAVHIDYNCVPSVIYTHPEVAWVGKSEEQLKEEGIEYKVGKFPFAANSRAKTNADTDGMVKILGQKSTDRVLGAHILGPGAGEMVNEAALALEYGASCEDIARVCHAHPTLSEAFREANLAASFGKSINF

Assays:
Assay in all cases: log2 fold change, soluble protein after heating vs DMSO (PISA); higher = thermal stabilisation; K562 cells, 10 uM, 30 min; active = over 0.2 and 3.5 SD of the protein, either way, in both replicates (recomputed)
[1] = compound: C#Cc1cccc(Nc2ncnc3cc(OCCOC)c(OCCOC)cc23)c1 [erlotinib]
Outline: (§1)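 Quantification of soluble protein used TMTpro 16plex LC-MS/MS, with channel sums equalised. Samples were the supernatant after 21,000xg for 90 min of pooled aliquots from K562 cells (2×10^6 cells/mL) treated with 10 μM compound for 30 min, heated for 3 min over 48°C-58°C, and extracted in PBS with 0.5% NP-40 at 4°C. Values, from duplicates, describe thermal stability against control samples on a log2 fold-change scale.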

[2] = compound: C/C(=N\NC(=O)C1=CC(=CC=C1)S(=O)(=O)N2CCOCC2)/C3=C(C=CC(=C3)Cl)O
Outline: as §1

[3] = compound: C1=CC(=C(C=C1Cl)C2=NC3=NC=CN=C3C(=N2)NC4=CC=NC=C4)F
Outline: as §1

[4] = compound: C1=CC(=CC=C1C2=NC3=C(N2)C=C(C=C3)C(=O)N)OC4=CC=C(C=C4)Cl
Outline: as §1

[5] = compound: C1=CC2=C(C=CC(=C2)/C=C\3/C(=O)NC(=NCC4=CC=CS4)S3)N=C1
Outline: as §1

[6] = compound: C1=CC2=NC=CN=C2C=C1/C=C/3\C(=O)NC(=O)S3
Outline: as §1

[7] = compound: C1=CC=C(C=C1)C2=NC(=C(N2)C3=CC=NC=C3)C4=CC(=C(C=C4)Cl)O
Outline: as §1

[8] = compound: C1=CC=C2C(=C1)C3=NNC4=CC=CC(=C43)C2=O
Outline: as §1

[9] = compound: C1CCN(C1)C(=O)NC2=CC=CC(=C2)NC3=NC=C(C(=N3)NCCC4=CN=CN4)Br
Outline: as §1

[10] = compound: C1CN(CCC1(CC2=CC=C(C=C2)Cl)N)C3=NC=NC4=C3C=CN4
Outline: as §1

[11] = compound: C=CC(=O)N1CCC[C@@H](n2nc(-c3ccc(Oc4ccccc4)cc3)c3c(N)ncnc32)C1 [ibrutinib]
Outline: as §1

[12] = compound: CC(=O)c1cnc2ccc(-c3cc(Cl)c(O)c(Cl)c3)nc2c1N[C@H]1CC[C@H](CN(C)C)CC1
Outline: as §1

[13] = compound: CC(C)(C)Cn1c(N)nc2ccc(-c3[nH]c(C(C)(C)C)nc3-c3ccc(F)cc3)nc21 [ralimetinib]
Outline: as §1

[14] = compound: CC(C)(O)CC(=O)NCCn1ccc2ncnc(Nc3ccc(Oc4cccc(C(F)(F)F)c4)c(Cl)c3)c21
Outline: as §1

[15] = compound: CC(C)C1=C2N=C(C=C(N2N=C1)NCC3=CC=CC=C3)NCCCCCCN
Outline: as §1

[16] = compound: CC(C)C[C@@H](C=O)NC(=O)[C@H](CC(C)C)NC(=O)[C@H](CC(C)C)NC(=O)OCc1ccccc1
Outline: as §1

[17] = compound: CC1=C(C(CC(=O)N1)C2=CC=C(C=C2)C(F)(F)F)C(=O)NC3=C(C=C4C(=C3)C=NN4)F
Outline: as §1

[18] = compound: CC1=C(C2=C(C=C1)C(=O)C3=CC=CC=C3N2CCCN)C
Outline: as §1

[19] = compound: C1COCCN1CCN2C3=CC=CC=C3N=C2NC(=O)C4=CC(=CC=C4)[N+](=O)[O-] [IRAK-1-4 Inhibitor I]
Outline: as §1

[20] = compound: CC(C)N(C[C@H]1O[C@@H](n2cnc3c(N)ncnc32)[C@H](O)[C@@H]1O)[C@H]1C[C@@H](CCc2nc3cc(C(C)(C)C)ccc3[nH]2)C1 [pinometostat]
Outline: as §1

Measured: log2 fold change

DDB2 (UniProt Q92466)
inactive: [1] 0.037 | [2] 0.082 | [3] 0.036 | [4] -0.027 | [5] 0 | [6] -0.149 | [7] 0.011 | [8] -0.027 | [9] -0.102 | [10] 0.154 | [11] 0.186 | [12] -0.044 | [13] -0.039 | [14] 0.084 | [15] 0.145 | [16] 0.111 | [17] 0.068 | [18] 0.112

DHRS7B (UniProt Q6IAN0)
inactive: [1] -0.039 | [2] 0.07 | [3] 0.011 | [4] 0.009 | [5] 0.027 | [6] 0.012 | [7] 0.144 | [8] 0.034 | [9] -0.037 | [10] 0.058 | [19] 0.027 | [11] -0.017 | [12] -0.063 | [13] 0.23 | [14] 0.055 | [15] 0.115 | [16] -0.113 | [20] -0.055 | [18] -0.003

DHRS1 (UniProt Q96LJ7)
active: [2] 0.995 | [7] 0.813
inactive: [1] -0.045 | [3] -0.02 | [4] -0.105 | [5] 0.353 | [6] -0.034 | [8] -0.163 | [9] -0.163 | [10] -0.021 | [19] 0.037 | [11] 0.105 | [12] 0.045 | [13] 0.014 | [14] 0 | [15] 0.614 | [16] 0.21 | [20] -0.087 | [18] 0.071

DICER1 (UniProt Q9UPY3)
inactive: [1] 0.067 | [2] -0.115 | [3] -0.329 | [4] 0.086 | [5] 0.02 | [6] -0.041 | [7] 0.09 | [8] -0.104 | [9] -0.063 | [10] -0.066 | [11] -0.054 | [12] 0.102 | [13] 0.168 | [14] 0.039 | [15] -0.005 | [16] 0.032 | [17] -0.036 | [18] 0.07

DESI1 (UniProt Q6ICB0)
inactive: [1] -0.041 | [2] -0.012 | [4] 0.017 | [5] 0.147 | [6] 0.099 | [8] 0.056 | [9] -0.22 | [10] 0.023 | [11] -0.014 | [12] -0.044 | [15] 0.071 | [18] 0.052

DIP2A (UniProt Q14689)
inactive: [1] -0.002 | [2] 0.07 | [3] 0.055 | [4] 0.103 | [5] -0.145 | [6] 0.076 | [7] 0.037 | [8] 0.043 | [9] 0.03 | [10] 0.053 | [19] -0.036 | [11] 0.053 | [12] -0.06 | [13] 0.102 | [14] 0.003 | [15] -0.023 | [16] 0.118 | [20] 0.064 | [18] 0.018

DNAH11 (UniProt Q96DT5)
inactive: [1] -0.252 | [2] -0.237 | [3] 0.001 | [4] 0.085 | [5] 0.012 | [6] -0.023 | [7] -0.28 | [8] -0.001 | [9] 0.125 | [10] 0.119 | [19] 0.038 | [11] 0.103 | [12] 0.126 | [13] -0.285 | [14] 0.047 | [15] -0.001 | [16] 0.041 | [20] -0.019 | [18] -0.137

DIDO1 (UniProt Q9BTC0)
inactive: [1] -0.019 | [2] -0.126 | [3] 0.011 | [4] 0.004 | [5] -0.033 | [7] 0.087 | [8] -0.031 | [9] -0.191 | [10] -0.018 | [19] -0.052 | [12] 0.085 | [13] 0.122 | [14] -0.102 | [15] -0.163 | [16] -0.01 | [20] 0.124 | [18] -0.091

DLD (UniProt P09622)
inactive: [1] 0.001 | [2] -0.018 | [3] 0.044 | [4] -0.083 | [5] -0.007 | [6] -0.018 | [7] 0.032 | [8] -0.018 | [9] 0.031 | [10] 0.054 | [19] 0.079 | [11] 0.007 | [12] 0.043 | [13] -0.004 | [14] -0.043 | [15] -0.125 | [16] -0.029 | [20] 0.001 | [18] -0.008
